Consider 20 compounds from PubChem BioAssay AID248 (DTP/NCI, 2004).

The list shows only some results of the screen, not a fair sample: it is rich in T/C values a quarter to a half above the control, in often repeated tests (any T/C) and in doses without a T/C. Further doses and runs are listed elsewhere. T/C gives the treated animals as a percentage of the vehicle group. Some doses have a count of surviving animals in place of a T/C: the source files T/C as zero there, which appears to mark a toxic dose or a test without result, not a measured value. Some survivor counts are full or nearly so, which does not show that the dose was tolerated: survival well below the control is almost never listed, so the zero probably covers shortened survival too. Survivors were counted at the toxicity check, usually on the fifth day, unless a day is given; later deaths do not show. Schedules are NCI's codes, taken here to give the interval after Q, in days (D) or hours (H), and the number of doses after X. Some schedules carry Z or #; the key to these is not given. Some entries were tested several times; the values are given in rising order. For survival time, the PubChem record calls one and a half times the control and up active, and a quarter to a half above the control has no call in these data; cut-offs in other NCI protocols can differ.

In the test the test system is L1210 leukemia ip in BDF1 mice, survival T/C. The experiment in a line: NCI In Vivo Anticancer Drug Screen. Data for tumor model L1210 Leukemia (intraperitoneal) in B6D2F1 (BDF1) mice. The following applies: T/C endpoint: mean survival time, higher T/C = longer survival.
The mark [1] stands for this setting: dose: 100.0 mg/kg/injection, schedule: Q01DX009 (ip), vehicle: saline with Tween-80.
[2] abbreviates: dose: 200.0 mg/kg/injection, schedule: Q04DX003 (ip), vehicle: saline with Tween-80.
Setting [3] is: dose: 400.0 mg/kg/injection, schedule: Q04DX003 (ip), vehicle: saline with Tween-80.
Setting [4] is: dose: 400.0 mg/kg/injection, schedule: Q01DX001 (ip), vehicle: carboxymethylcellulose (CMC).
[5] abbreviates: dose: 100.0 mg/kg/injection, schedule: Q01DX001 (ip), vehicle: saline.
Where [6] appears, read: dose: 400.0 mg/kg/injection, schedule: Q01DX001 (ip), vehicle: saline.
The mark [7] stands for this setting: dose: 200.0 mg/kg/injection, schedule: Q04DX003 (ip), vehicle: saline.

For `CC(=O)O[C@@]1(C)[C@@H](C)C(=O)O[C@@H]2CCN3CC=C(COC(=O)[C@]1(C)O)[C@H]23`, the T/C reads like this: (dose: 25.0 mg/kg/injection, schedule: Q01DX009 (ip), vehicle: carboxymethylcellulose (CMC)) 131 % of control; (dose: 50.0 mg/kg/injection, schedule: Q01DX009 (ip), vehicle: saline) 126 % of control; (dose: 100.0 mg/kg/injection, schedule: Q01DX009 (ip), vehicle: saline) 134 % of control. The survivor count reads like this: (dose: 200.0 mg/kg/injection, schedule: Q01DX009 (ip), vehicle: carboxymethylcellulose (CMC)) 1 of 6; (dose: 200.0 mg/kg/injection, schedule: Q01DX009 (ip), vehicle: saline) 3 of 6.
In the case of `COc1cccc(/C=N/NC(=O)C[n+]2ccccc2)c1OC`, the survivor count is 3 of 6 under setting [1], 0 of 6 under setting [2] and 0 of 6 under setting [3].
Consider `N#CSc1ccc(NN)cc1`, for which the survivor count (dose: 50.0 mg/kg/injection, schedule: Q01DX009 (ip), vehicle: saline with Tween-80) is 3 of 6; the survivor count (dose: 50.0 mg/kg/injection, schedule: Q04DX003 (ip), vehicle: saline with Tween-80) was 6 of 6; the survivor count under setting [1] was 0 of 6; the survivor count (dose: 100.0 mg/kg/injection, schedule: Q04DX003 (ip), vehicle: saline with Tween-80) is 0 of 6 and 1 of 6; the survivor count under setting [2] is given as 0 of 6; the survivor count under setting [3] was 0 of 6.
On to `C[N+](C)(C)Cc1c[nH]c2ccsc12`, for which the survivor count by setting is: (dose: 25.0 mg/kg/injection, schedule: Q01DX001 (ip), vehicle: saline with Tween-80) 1 of 6; (dose: 50.0 mg/kg/injection, schedule: Q01DX001 (ip), vehicle: saline with Tween-80) 2 of 6; (dose: 100.0 mg/kg/injection, schedule: Q01DX001 (ip), vehicle: saline with Tween-80) 0 of 6; (dose: 200.0 mg/kg/injection, schedule: Q01DX001 (ip), vehicle: saline with Tween-80) 0 of 6; (dose: 400.0 mg/kg/injection, schedule: Q01DX001 (ip), vehicle: saline with Tween-80) 0 of 6.
As to `CCCCCCCCN1N=CC(CC)C1CCC` (stereo not drawn), the survivor count under setting [4] is given as 4 of 4.
For `C/C(=C/c1ccccc1)OC(=O)c1ccccc1`, the survivor count (dose: 200.0 mg/kg/injection, schedule: Q01DX001 (ip), vehicle: carboxymethylcellulose (CMC)) is recorded as 4 of 4 and the survivor count under setting [4] was 4 of 4.
With `CC(C)CC(NC(=O)OCc1ccccc1)C(=O)NCCCCCCNCCCCCCNC(=O)C(CC(C)C)NC(=O)OCc1ccccc1` (stereo not drawn), the survivor count is, setting by setting: under setting [5], 2 of 4; under setting [6], 0 of 4.
`CC1(C)OC(=O)CC1c1ccccc1` (stereo not drawn): the survivor count is 2 of 6 under setting [5]; 0 of 6 (dose: 200.0 mg/kg/injection, schedule: Q01DX001 (ip), vehicle: saline); 0 of 6 under setting [6].
For `N#Cc1ccc(NC(=O)N(CCCl)N=O)cc1`, the T/C by setting is: (dose: 0.68 mg/kg/injection, schedule: Q01DX009 (ip), vehicle: saline) 136 % of control; (dose: 3.12 mg/kg/injection, schedule: Q01DX Z (ip), vehicle: carboxymethylcellulose (CMC)) 141 % of control; (dose: 9.37 mg/kg/injection, schedule: Q01DX001 (ip), vehicle: carboxymethylcellulose (CMC)) 133 % of control; (dose: 18.75 mg/kg/injection, schedule: Q01DX001 (ip), vehicle: carboxymethylcellulose (CMC)) 140 % of control. The survivor count runs as follows: (dose: 50.0 mg/kg/injection, schedule: Q01DX Z (ip), vehicle: carboxymethylcellulose (CMC)) 6 of 6; (dose: 75.0 mg/kg/injection, schedule: Q01DX Z (ip), vehicle: carboxymethylcellulose (CMC)) 3 of 6; (dose: 150.0 mg/kg/injection, schedule: Q01DX Z (ip), vehicle: carboxymethylcellulose (CMC)) 0 of 6; (dose: 200.0 mg/kg/injection, schedule: Q01DX Z (ip), vehicle: carboxymethylcellulose (CMC)) 0 of 6.
Take `CNC1=C(C)C(=O)C2=C(C1=O)C(COC(N)=O)C1(O)C3C(CN21)N3C` (stereo not drawn): the survivor count is, setting by setting: (dose: 10.0 mg/kg/injection, schedule: Q01DX001 (ip), vehicle: alcohol) 5 of 6; (dose: 23.0 mg/kg/injection, schedule: Q01DX001 (ip), vehicle: acetone) 1 of 6; (dose: 35.0 mg/kg/injection, schedule: Q01DX001 (ip), vehicle: acetone) 1 of 6; (dose: 50.0 mg/kg/injection, schedule: Q01DX001 (ip), vehicle: acetone) 1 of 6.
Regarding `c1cc[c]([Pb]([c]2ccccc2)([c]2ccccc2)[c]2ccccc2)cc1`, the survivor count (dose: 100.0 mg/kg/injection, schedule: Q04DX002 (ip), vehicle: Klucel (hydroxypropylcellulose) (HPC)) is 3 of 3.
Consider `CC1(C)COP(=O)(O)OC1`, for which the survivor count under setting [6] was 5 of 6.
For the compound `NNC(=O)C(N)Cc1ccccc1` (stereo not drawn), the survivor count under setting [6] is 0 of 3.
In the case of `CCOC(=O)C(C)C(=O)C(=O)N=C(N)N` (stereo not drawn), the survivor count under setting [7] is given as 6 of 6.
In the case of `CCOC(=O)/C=C/Sc1ccccc1`, the survivor count reads like this: (dose: 100.0 mg/kg/injection, schedule: Q04DX002 (ip), vehicle: saline with Tween-80) 1 of 3; (dose: 200.0 mg/kg/injection, schedule: Q04DX002 (ip), vehicle: saline with Tween-80) 0 of 3; (dose: 400.0 mg/kg/injection, schedule: Q04DX002 (ip), vehicle: saline with Tween-80) 0 of 3.
Turning to `C=CCn1cnc2c(=S)nc[nH]c21`, the T/C (dose: 18.0 mg/kg/injection, schedule: Q01DX015 (ip), vehicle: other) is 135 % of control; the T/C (dose: 26.0 mg/kg/injection, schedule: Q01DX015 (ip), vehicle: other) is 133 % of control; the T/C (dose: 40.0 mg/kg/injection, schedule: Q01DX015 (ip), vehicle: other) was 133 % of control; the T/C (dose: 200.0 mg/kg/injection, schedule: Q01DX001 (ip), vehicle: other) was 143 % of control; the T/C (dose: 400.0 mg/kg/injection, schedule: Q01DX001 (ip), vehicle: other) was 135 % of control. For the same compound, the survivor count was 6 of 6 (dose: 180.0 mg/kg/injection, schedule: Q01DX015 (ip), vehicle: other) and 6 of 6 (dose: 300.0 mg/kg/injection, schedule: Q01DX015 (ip), vehicle: other).
With `CC(=O)OCC(=O)[C@@]12OC(C)(C)O[C@@H]1C[C@H]1[C@@H]3CC(C=O)=C4C=C(OCCCl)CC[C@]4(C)[C@@]3(F)[C@@H](O)C[C@@]12C`, the survivor count by setting is: (dose: 200.0 mg/kg/injection, schedule: Q01DX009 (ip), vehicle: Klucel (hydroxypropylcellulose) (HPC)) 6 of 6; (dose: 400.0 mg/kg/injection, schedule: Q01DX009 (ip), vehicle: Klucel (hydroxypropylcellulose) (HPC)) 3 of 6.
As for `N#CN1CC(C(=O)N2CCCCC2)C=C2c3cccc4[nH]cc(c34)CC21` (stereo not drawn), the survivor count is, setting by setting: (dose: 2.0 mg/kg/injection, schedule: Q04DX003 (ip), vehicle: saline) 6 of 6; (dose: 32.0 mg/kg/injection, schedule: Q04DX003 (ip), vehicle: saline) 3 of 6; (dose: 100.0 mg/kg/injection, schedule: Q04DX003 (ip), vehicle: saline) 1 of 6; under setting [7], 0 of 6; (dose: 400.0 mg/kg/injection, schedule: Q04DX003 (ip), vehicle: saline) 0 of 6.
In the case of `O=C1N(Cl)C(=O)C(c2ccc(Cl)cc2)(c2ccc(Cl)cc2)N1Cl`, for the setting “dose: 400.0 mg/kg/injection, schedule: Q01DX009 (ip), vehicle: saline sonified”, the survivor count was 2 of 6.
Consider `CC1CN1P(=O)(N1CC1C)N1CC1C.CC1CN1P(=O)(N1CC1C)N1CC1C.CC1CN1P(=O)(N1CC1C)N1CC1C.CC1CN1P(=O)(N1CC1C)N1CC1C.[Cu+2].[O-][Cl+3]([O-])([O-])O` (stereo not drawn), for which the survivor count is, setting by setting: (dose: 200.0 mg/kg/injection, schedule: Q04DX002 (ip), vehicle: saline) 0 of 3; (dose: 400.0 mg/kg/injection, schedule: Q04DX002 (ip), vehicle: saline) 0 of 3.
